Laboratory results published in the supplement of paper PMC10849652.
Some of the results follow.

Chains of the proteins cited; added tags and fusions are not shown. Lines headed by an entry give the natural chain unless they say otherwise; changes in a name come on top.
UniProt P45880: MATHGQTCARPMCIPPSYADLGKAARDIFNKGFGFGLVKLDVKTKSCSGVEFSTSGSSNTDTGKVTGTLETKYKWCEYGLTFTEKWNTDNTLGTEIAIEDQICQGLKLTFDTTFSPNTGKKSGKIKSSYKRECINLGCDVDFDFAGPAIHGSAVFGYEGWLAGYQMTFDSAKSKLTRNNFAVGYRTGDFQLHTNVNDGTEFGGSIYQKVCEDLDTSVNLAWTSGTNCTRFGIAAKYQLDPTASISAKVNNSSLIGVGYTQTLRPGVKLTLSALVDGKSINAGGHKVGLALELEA
UniProt Q14694, whole entry, looked up: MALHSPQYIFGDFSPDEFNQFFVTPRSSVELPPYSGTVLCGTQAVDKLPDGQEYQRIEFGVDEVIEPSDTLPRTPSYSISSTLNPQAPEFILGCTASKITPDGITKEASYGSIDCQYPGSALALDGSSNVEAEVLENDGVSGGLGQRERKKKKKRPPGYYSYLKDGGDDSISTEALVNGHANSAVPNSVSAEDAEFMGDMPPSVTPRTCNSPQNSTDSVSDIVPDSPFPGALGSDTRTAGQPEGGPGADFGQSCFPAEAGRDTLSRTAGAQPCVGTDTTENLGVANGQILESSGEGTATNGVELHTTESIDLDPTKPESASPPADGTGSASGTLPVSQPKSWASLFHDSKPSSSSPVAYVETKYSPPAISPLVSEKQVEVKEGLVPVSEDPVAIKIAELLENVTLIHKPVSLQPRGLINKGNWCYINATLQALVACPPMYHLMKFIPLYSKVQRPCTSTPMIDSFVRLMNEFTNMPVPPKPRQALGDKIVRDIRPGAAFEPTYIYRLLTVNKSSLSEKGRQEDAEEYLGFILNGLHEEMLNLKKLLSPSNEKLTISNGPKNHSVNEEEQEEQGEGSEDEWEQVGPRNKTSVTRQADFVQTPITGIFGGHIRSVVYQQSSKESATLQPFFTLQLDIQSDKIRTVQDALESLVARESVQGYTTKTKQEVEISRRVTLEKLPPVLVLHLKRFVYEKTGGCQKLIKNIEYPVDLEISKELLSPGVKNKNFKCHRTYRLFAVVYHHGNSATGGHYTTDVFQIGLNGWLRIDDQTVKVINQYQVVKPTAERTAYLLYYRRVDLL
UniProt P40818: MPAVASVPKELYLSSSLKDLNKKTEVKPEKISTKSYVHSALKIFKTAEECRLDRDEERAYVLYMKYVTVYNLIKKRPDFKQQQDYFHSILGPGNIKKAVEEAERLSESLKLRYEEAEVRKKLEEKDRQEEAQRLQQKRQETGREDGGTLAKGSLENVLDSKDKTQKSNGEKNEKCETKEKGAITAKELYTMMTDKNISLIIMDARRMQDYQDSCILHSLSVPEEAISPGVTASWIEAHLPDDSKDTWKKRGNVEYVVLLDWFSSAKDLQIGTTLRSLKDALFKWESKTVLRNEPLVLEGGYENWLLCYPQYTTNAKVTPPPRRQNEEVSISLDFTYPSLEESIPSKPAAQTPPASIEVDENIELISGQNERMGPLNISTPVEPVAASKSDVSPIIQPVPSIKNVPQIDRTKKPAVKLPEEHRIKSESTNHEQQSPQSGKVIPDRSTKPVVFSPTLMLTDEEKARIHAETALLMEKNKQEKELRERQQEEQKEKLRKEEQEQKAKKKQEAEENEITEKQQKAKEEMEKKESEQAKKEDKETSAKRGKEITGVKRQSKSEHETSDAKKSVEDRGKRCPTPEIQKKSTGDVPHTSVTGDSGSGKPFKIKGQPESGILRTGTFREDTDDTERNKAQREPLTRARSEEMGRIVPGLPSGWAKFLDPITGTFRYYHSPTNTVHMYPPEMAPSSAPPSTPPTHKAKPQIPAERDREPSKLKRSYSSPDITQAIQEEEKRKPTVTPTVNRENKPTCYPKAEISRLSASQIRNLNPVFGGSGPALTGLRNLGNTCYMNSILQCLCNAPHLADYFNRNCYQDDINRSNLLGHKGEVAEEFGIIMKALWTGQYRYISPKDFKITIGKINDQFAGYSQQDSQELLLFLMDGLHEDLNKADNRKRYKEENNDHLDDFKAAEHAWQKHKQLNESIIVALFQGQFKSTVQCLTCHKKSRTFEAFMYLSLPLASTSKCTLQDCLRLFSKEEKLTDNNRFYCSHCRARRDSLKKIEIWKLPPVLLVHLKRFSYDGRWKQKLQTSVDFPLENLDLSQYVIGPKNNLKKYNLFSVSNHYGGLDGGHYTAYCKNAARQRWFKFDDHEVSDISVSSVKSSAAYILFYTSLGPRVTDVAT
UniProt Q08AM6: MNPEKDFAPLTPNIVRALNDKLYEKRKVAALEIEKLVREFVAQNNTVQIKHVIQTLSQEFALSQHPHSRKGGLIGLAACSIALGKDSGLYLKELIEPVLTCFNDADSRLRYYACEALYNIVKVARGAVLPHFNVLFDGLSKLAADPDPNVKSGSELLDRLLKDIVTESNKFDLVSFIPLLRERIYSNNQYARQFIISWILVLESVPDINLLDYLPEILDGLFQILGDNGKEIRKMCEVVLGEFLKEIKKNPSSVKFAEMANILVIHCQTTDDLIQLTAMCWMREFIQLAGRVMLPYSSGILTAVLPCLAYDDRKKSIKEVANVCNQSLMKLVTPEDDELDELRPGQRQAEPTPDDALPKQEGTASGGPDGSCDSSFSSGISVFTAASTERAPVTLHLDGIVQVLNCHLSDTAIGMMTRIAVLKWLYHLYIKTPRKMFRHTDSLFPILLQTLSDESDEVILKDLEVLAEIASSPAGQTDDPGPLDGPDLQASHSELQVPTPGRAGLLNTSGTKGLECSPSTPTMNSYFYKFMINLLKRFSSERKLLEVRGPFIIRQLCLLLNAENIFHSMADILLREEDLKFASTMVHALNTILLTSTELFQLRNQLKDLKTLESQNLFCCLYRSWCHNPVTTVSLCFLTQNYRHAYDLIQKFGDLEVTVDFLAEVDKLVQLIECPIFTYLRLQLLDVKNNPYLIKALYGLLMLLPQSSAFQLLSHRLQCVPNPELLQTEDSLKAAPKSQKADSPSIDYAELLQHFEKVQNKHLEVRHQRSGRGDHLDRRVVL
UniProt Q9UHP3: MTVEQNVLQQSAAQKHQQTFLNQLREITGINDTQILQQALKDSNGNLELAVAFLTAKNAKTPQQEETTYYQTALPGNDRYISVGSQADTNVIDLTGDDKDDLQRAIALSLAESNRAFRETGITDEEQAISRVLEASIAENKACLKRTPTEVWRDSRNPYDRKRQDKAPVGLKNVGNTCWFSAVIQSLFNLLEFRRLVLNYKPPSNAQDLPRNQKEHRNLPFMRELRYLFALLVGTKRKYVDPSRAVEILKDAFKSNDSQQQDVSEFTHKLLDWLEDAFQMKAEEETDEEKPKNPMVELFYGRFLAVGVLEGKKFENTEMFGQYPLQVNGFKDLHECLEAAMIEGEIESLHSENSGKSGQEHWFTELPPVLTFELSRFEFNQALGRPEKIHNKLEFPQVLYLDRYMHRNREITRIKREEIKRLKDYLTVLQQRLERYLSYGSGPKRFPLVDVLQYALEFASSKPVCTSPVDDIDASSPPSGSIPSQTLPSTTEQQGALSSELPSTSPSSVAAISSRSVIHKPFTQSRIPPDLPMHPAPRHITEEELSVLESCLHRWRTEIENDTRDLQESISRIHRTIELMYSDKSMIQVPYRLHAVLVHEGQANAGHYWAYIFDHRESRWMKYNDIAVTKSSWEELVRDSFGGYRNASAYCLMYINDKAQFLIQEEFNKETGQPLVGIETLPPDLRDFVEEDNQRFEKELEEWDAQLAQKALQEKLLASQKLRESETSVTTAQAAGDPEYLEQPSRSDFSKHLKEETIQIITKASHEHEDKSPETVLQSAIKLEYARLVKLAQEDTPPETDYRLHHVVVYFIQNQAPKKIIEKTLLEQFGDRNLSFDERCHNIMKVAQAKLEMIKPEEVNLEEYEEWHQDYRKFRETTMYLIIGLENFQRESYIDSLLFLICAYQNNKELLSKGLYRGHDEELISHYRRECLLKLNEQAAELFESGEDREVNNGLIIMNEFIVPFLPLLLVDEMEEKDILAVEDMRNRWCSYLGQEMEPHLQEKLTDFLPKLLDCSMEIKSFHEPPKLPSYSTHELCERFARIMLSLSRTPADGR
UniProt P51809, whole entry, looked up: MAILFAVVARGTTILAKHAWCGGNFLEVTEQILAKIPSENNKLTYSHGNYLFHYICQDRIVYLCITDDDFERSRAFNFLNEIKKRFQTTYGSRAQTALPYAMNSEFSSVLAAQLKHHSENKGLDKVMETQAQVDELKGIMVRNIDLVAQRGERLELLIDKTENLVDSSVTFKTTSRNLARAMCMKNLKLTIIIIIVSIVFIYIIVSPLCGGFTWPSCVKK
UniProt Q9UBK9, whole entry, looked up: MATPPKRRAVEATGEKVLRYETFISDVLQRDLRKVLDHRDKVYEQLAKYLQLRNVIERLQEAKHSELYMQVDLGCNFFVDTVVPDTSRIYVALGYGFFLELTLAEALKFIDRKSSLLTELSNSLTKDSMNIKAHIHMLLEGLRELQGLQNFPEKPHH
UniProt Q8IX04: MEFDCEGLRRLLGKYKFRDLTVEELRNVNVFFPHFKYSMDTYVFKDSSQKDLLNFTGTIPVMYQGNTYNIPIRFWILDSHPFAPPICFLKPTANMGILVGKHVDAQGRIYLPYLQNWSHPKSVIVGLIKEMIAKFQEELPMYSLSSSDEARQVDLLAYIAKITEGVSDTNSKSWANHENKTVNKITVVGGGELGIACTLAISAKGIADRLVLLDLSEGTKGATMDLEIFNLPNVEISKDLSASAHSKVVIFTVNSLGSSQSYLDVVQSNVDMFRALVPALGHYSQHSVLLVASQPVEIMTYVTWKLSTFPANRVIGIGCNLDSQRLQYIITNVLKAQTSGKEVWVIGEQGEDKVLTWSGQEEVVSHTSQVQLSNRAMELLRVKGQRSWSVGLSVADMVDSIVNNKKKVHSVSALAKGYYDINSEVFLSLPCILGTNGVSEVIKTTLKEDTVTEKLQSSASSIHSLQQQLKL
UniProt Q53GS9: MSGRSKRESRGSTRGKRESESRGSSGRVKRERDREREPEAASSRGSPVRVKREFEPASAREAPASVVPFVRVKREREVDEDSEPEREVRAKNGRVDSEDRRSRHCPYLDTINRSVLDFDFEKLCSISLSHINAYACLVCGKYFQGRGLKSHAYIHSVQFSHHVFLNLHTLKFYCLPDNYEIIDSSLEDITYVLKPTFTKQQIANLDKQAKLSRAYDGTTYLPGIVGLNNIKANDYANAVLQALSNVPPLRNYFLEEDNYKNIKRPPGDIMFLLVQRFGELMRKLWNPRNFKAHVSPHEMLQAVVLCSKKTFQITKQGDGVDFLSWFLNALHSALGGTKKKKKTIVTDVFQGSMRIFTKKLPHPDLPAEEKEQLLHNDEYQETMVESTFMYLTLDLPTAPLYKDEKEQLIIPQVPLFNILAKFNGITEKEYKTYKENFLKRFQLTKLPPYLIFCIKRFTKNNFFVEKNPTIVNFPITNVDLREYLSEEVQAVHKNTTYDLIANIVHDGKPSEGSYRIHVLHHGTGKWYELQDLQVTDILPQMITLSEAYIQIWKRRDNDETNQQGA
UniProt Q9NVA1: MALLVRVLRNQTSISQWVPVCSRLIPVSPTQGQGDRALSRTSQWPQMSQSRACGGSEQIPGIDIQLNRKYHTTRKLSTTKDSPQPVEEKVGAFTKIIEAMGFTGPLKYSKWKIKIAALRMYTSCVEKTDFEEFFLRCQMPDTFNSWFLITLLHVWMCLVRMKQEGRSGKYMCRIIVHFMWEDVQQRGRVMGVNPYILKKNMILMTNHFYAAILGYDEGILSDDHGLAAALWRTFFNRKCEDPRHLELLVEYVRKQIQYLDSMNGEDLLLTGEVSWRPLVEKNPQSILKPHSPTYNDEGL
UniProt P09327: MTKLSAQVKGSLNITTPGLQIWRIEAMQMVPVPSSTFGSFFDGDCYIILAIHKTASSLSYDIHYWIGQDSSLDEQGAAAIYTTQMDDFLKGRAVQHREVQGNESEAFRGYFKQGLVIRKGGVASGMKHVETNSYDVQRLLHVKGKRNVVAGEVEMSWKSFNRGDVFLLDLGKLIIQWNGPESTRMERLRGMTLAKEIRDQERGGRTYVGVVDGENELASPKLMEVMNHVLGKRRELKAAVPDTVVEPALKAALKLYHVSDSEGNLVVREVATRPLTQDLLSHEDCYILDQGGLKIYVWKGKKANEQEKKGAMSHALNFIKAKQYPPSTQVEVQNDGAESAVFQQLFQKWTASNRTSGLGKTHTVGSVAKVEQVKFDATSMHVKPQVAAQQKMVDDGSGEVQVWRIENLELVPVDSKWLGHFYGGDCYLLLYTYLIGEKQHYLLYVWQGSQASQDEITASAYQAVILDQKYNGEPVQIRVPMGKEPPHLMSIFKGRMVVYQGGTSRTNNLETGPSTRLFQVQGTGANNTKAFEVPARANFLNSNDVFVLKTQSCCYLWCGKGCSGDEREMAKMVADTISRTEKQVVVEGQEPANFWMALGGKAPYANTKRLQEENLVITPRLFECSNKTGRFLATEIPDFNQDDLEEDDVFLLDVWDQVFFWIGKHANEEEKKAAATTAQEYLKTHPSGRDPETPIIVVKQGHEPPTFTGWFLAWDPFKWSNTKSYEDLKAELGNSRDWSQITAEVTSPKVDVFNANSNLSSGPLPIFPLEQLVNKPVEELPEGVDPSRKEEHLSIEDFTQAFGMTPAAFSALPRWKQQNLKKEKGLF

Compound: Cc1ccc(NC(=O)c2ccc(CN3CC[C@H](N(C)C)C3)c(C(F)(F)F)c2)cc1Nc1nccc(-c2cncnc2)n1 [bafetinib]
Assay: log2 fold change, soluble protein after heating vs DMSO (PISA); higher = thermal stabilisation; K562 lysate, 10 uM; active = over 0.2 and 3.5 SD of the protein, either way, in both replicates (recomputed)
In short: (§1)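 Log-two fold change in thermal stability relative to solvent controls is reported from duplicates. For each sample, crude K562 extract from dounce-homogenised pellets in PBS pH 7.4 with 1 mM MgCl2, at 1 mg/mL protein, was treated with 10 μM compound for 30 min. Aliquots heated for 3 min across 48°C-58°C were pooled, brought to 0.5% NP-40 at 4°C and cleared at 21,000xg for 90 min. The supernatant was quantified by TMTpro 16plex LC-MS/MS with channel sums equalised.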

log2 fold change, inactive:
UPF2 (UniProt Q9HAU5) -0.031
VDAC2 isoform 2 (UniProt P45880) 0.01
USP10 isoform 2 (UniProt Q14694) -0.014
VCX3B (UniProt Q9H321) -0.002
UFL1 (UniProt O94874) -0.046
USP48 isoform 8 (UniProt Q86UV5) -0.027
UPF3B (UniProt Q9BZI7) -0.012
VAV3 isoform 4 (UniProt Q9UKW4) 0.023
UGDH (UniProt O60701) -0.019
USP8 (UniProt P40818) -0.026
UFD1 isoform 1 (UniProt Q92890) 0.068
VAPA (UniProt Q9P0L0) 0.067
VAC14 (UniProt Q08AM6) -0.036
USP25 (UniProt Q9UHP3) -0.007
VAMP7 (UniProt P51809) 0.004
UHRF1BP1L (UniProt A0JNW5) -0.014
VANGL1 (UniProt Q8TAA9) 0.016
VDAC1 (UniProt P21796) 0.029
VARS2, A0A0G2JL52 -0.015
USP15 (UniProt Q9Y4E8) 0.049
UQCRQ (UniProt O14949) 0.043
VAMP8 (UniProt Q9BV40) -0.028
UGGT1 (UniProt Q9NYU2) -0.007
VCL (UniProt P18206) 0.002
UXT isoform 2 (UniProt Q9UBK9) 0.089
UEVLD (UniProt Q8IX04) 0.01
UTP6 (UniProt Q9NYH9) -0.135
USF1 (UniProt P22415) -0.06
UTP15 (UniProt Q8TED0) -0.037
USP39 (UniProt Q53GS9) -0.034
UQCC1 (UniProt Q9NVA1) 0.049
VIL1 (UniProt P09327) -0.171

Compound: Cc1cccc(CC(=O)N2CCc3c2ccc(-c2cn(C)c4ncnc(N)c24)c3F)n1
Assay: as above
In short: as §1

log2 fold change, inactive:
UPF2 (UniProt Q9HAU5) 0.023
VDAC2 isoform 2 (UniProt P45880) -0.022
USP10 isoform 2 (UniProt Q14694) 0.028
VCX3B (UniProt Q9H321) 0.021
UFL1 (UniProt O94874) 0.016
USP48 isoform 8 (UniProt Q86UV5) 0.034
UPF3B (UniProt Q9BZI7) 0.067
VAV3 isoform 4 (UniProt Q9UKW4) 0.242
UGDH (UniProt O60701) -0.022
USP8 (UniProt P40818) 0.017
UFD1 isoform 1 (UniProt Q92890) -0.021
VAPA (UniProt Q9P0L0) -0.141
VAC14 (UniProt Q08AM6) 0.067
USP25 (UniProt Q9UHP3) -0.004
VAMP7 (UniProt P51809) 0.02
UHRF1BP1L (UniProt A0JNW5) 0.017
VANGL1 (UniProt Q8TAA9) 0.084
VDAC1 (UniProt P21796) -0.036
VARS2, A0A0G2JL52 0.109
USP15 (UniProt Q9Y4E8) 0
UQCRQ (UniProt O14949) -0.001
VAMP8 (UniProt Q9BV40) 0.021
UGGT1 (UniProt Q9NYU2) 0.008
VCL (UniProt P18206) 0.014
UXT isoform 2 (UniProt Q9UBK9) 0.065
UEVLD (UniProt Q8IX04) 0.009
UTP6 (UniProt Q9NYH9) 0.133
USF1 (UniProt P22415) 0.02
UTP15 (UniProt Q8TED0) 0.028
USP39 (UniProt Q53GS9) 0.033
UQCC1 (UniProt Q9NVA1) -0.039
VIL1 (UniProt P09327) 0.04
